US7101980B2, “Derivatives, conjugates, and antibodies for detecting ecstasy-class analytes” (Roche Diagnostics Operations, Inc., priority 2002, dated 2006)
For at least one compound, name, drawing or mass did not settle the structure.

Assays:
antibody NEAMP 1.3 = assay: Cross-reactivity of NEAMP 1.3 with various drugs generated in an ELISA assay; type: binding, mouse; details: antibody NEAMP 1.3 (immunogen 26, Q=KLH), MDEA as standard = 100
Method: Antibodies elicited by the immunogen 12, e.g., wherein T is KLH, show good response and specificity to ecstasy-class drugs. Furthermore, these antibodies show little or no cross-reactivity to related drugs. By determining the drug concentration that results in a 50% reduction in binding (ED50) of a standard, methamphetamine, dividing by the ED50 of each other drug, and then multiplying the result by 100, the percent cross-reactivity was calculated.
Tables 2, 3, and 4 show cross-reactivity data for the antibodies NEAMP 1.3, NEAMP 48.2, and NEAMP 62.1, which were generated in response to immunogen 26 of FIG. 2 wherein Q is KLH. By the procedure described above, using MDEA as a standard, the percent cross-reactivities shown in Tables 2, 3, and 4 were calculated. […]
When the growing clones were judged ready for testing, 25 μL of supernatant from the wells were taken and transferred to 96-well flexible plates. […] Color was read by means of a microplate reader at […] and collected by computer for analysis. […] Clones chosen were immediately subcloned and, when ready, retested. […]

antibody MDMA 2.1.1 = assay: Cross-reactivity of antibody MDMA 2.1.1 with various drugs (ELISA cross-reactivity assay); type: binding, mouse; details: antibody MDMA 2.1.1 (elicited by immunogen 12, T=KLH); ED50 of standard / ED50 of drug x 100; MDMA = 100
Method: In Table 1, the abbreviation d-AMP represents d-amphetamine, the abbreviation d-MAMP represents d-methamphetamine, the abbreviation l-AMP represents l-amphetamine, the abbreviation l-MAMP represents l-methamphetamine, and the abbreviation MDPA represents 3,4-methylenedioxy-N-propylamphetamine.
Microplates were coated with […] methylenedioxymethamphetamine-BSA conjugate 12 (T=BSA, 12b) at a concentration of 1 mg/mL, and separate microplates were coated with either 100 μL methamphetamine-BSA (MAMP-BSA) 28 at a concentration of 1 mg/mL or with 100 μL of amphetamine-BSA (AMP-BSA) 30 at a concentration of 1 mg/mL.
The plates were incubated covered for 1 hour at 37° C. (humidified). The plates were then emptied and filled with a post-coat solution consisting of Tris buffer, 1% gelatin hydrolysate, 2% sucrose, and 0.17% TWEEN 20. (All reagents were from Sigma Chemical Co.) The plates were incubated covered for an additional 1 hour at 37° C. (humidified), after which they were washed with phosphate-buffered saline containing 0.1% TWEEN 20. […]
For the primary screening of the growing clones from the fusion plates, only the MDMA-BSA 12 (T=BSA, 12b) coated plates were used. […] Color was read by means of a microplate reader at 450 nm and collected by computer for analysis. […]

CNC(=C[N+](=O)[O-])NCCSCc1ccc(CN(C)C)o1 [ranitidine]
% Cross-reactivity (antibody NEAMP 1.3): 0.04% | % Cross-reactivity (antibody MDMA 2.1.1): 0%
